These are yes or no findings as the source states them, for the method shown. Binding seen in cells or lysates may run through a third protein. Some binding calls cover weakened binding; strength is not graded here. Where a sequence is shown, tags or fusion partners need not be part of it.

Sequences of proteins named here, by UniProt entry; tags and fusion partners are left off. A change or cut given only in a name is not applied to a line headed by its entry. A line that says so, or that is headed by a name, gives the form on record, which may keep a tag or linker.
UniProt P61586: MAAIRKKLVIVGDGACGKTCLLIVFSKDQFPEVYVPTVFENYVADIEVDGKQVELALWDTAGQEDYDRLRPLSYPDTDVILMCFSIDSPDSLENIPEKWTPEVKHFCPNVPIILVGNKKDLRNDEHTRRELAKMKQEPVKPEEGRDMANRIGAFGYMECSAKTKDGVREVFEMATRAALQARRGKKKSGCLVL
constitutively active HA-RhoA-L30 (P61586, form named): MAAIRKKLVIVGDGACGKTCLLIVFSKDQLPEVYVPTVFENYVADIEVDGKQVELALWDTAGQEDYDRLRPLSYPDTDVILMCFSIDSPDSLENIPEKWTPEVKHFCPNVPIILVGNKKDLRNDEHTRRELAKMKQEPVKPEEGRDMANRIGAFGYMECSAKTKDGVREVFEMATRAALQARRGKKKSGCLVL

The source of these data is paper doi:10.1101/2020.07.02.185298.

The experiment concerns the target T1, LOK-CTD-GFP-Flag (LOK_310-968-GFP-Flag) (UniProt O94804).
T1 sequence: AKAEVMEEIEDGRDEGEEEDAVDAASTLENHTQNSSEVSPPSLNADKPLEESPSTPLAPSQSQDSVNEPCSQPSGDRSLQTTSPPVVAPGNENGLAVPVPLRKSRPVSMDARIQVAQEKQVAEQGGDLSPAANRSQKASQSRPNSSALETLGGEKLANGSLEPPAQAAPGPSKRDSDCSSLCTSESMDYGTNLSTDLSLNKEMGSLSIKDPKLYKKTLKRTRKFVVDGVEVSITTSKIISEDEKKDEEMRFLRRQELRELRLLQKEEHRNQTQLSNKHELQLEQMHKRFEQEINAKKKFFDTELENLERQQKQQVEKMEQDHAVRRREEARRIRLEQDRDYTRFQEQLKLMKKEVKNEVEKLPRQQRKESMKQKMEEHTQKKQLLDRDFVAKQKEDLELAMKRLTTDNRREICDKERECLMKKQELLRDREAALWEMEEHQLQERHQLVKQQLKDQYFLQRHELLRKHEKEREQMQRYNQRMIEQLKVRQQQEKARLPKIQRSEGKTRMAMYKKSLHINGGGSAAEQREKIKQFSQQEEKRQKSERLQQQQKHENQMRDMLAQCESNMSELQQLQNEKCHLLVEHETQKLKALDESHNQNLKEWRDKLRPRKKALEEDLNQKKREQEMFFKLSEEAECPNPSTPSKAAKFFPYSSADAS
In words: co-IP.

As for “constitutively active HA-RhoA-L30 (from UniProt P61586 1-193)”, the binding result is listed as “binds”.
